Measured values as given in patent US20190218283A1.
No constants are given. Whether binding was seen depends on the method and setting. Some results given as binding are weak or reduced against the parent protein; the word gives no strength.

By UniProt entry, the sequences of proteins in these tests, tags left out. Where a name states a change or a piece, a line headed by the entry shows the natural chain unless it says otherwise.
UniProt O08689: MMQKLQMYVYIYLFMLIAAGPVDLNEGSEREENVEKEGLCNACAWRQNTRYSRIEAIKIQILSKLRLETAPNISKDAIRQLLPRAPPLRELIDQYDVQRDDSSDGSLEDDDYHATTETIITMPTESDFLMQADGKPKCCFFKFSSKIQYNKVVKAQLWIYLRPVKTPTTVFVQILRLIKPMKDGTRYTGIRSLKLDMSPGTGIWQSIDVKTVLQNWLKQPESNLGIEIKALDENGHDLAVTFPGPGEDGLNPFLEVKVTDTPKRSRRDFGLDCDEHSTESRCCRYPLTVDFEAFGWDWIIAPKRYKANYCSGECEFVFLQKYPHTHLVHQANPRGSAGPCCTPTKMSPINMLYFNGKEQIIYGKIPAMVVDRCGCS

Tests used:
[1] = target: murine pro-myostatin (proGDF8) (mouse) (UniProt O08689); assay: immunofluorescence on cryosectioned mouse tibialis anterior muscle
[2] = target: murine latent myostatin (latent GDF8) (mouse) (UniProt O08689); assay: as above
[3] = target: murine pro-myostatin (proGDF8) (mouse) (UniProt O08689); assay: ForteBio BLI (Table 23)
[4] = target: murine latent myostatin (latent GDF8) (mouse) (UniProt O08689); assay: ForteBio BLI (Table 23)

Measured: binding

B1: Ab10 (antibody, V domains shown)
VH: EVQLVQSGGGVVQSGRSLRLSCVASGFSFSNYGMHWVRQAPGKGLEWLAFIWYDGSNKWYADSVKGRFTISRDNSKNALYLQMNSLRAEDTAVYYCARDRYSSSWGGGFDYWGQGTVLTVSS
VL: NFMLTQPHSVSESPGRTVTIPCSGRGGSIASDSVQWYQQRPGSAPTTIIYEDNQRPSGVPDRFSGSVDSSSNSASLTISGLRTEDEADYYCQSYDASSLWVFGGKTKLTVLG
binds: all assays above
